The values that follow come from paper PMC6704582.

Amino acid sequences for entries named in this document (tags omitted).
UniProt O60260: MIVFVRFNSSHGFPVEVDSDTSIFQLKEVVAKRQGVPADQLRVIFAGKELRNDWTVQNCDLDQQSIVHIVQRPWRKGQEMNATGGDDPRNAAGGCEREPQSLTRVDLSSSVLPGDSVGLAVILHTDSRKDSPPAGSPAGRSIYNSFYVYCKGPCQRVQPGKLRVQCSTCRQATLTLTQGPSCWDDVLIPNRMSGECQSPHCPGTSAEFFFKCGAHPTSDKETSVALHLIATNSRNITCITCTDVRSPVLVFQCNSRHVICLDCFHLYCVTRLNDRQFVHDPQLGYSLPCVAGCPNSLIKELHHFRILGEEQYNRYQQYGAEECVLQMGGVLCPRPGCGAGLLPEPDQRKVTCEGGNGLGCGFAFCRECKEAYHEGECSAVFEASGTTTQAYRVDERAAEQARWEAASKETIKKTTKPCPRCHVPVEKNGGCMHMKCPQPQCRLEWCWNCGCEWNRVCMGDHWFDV
UniProt P35222: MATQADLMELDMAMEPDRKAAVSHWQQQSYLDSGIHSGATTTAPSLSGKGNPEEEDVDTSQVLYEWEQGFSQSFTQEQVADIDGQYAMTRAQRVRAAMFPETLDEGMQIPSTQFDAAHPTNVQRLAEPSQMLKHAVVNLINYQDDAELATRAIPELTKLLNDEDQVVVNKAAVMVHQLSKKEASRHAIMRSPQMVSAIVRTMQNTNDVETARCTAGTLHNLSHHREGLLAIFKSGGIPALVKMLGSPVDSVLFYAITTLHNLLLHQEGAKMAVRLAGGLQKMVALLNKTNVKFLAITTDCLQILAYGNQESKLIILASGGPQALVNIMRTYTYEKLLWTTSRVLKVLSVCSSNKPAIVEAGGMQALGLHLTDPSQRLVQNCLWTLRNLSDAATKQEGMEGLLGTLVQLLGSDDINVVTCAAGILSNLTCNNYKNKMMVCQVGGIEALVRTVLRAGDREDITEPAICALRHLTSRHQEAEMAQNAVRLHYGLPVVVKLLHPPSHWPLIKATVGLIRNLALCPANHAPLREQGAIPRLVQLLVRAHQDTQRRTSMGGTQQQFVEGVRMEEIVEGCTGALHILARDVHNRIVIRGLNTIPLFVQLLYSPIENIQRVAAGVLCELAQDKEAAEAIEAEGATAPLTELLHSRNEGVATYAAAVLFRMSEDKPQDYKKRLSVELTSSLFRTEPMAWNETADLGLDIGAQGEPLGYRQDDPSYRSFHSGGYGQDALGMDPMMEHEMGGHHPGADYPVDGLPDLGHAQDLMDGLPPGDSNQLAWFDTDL

This test has as its target Myc-tagged parkin (UniProt O60260). The test is described as follows: co-IP; HepG2 cells transfected with Myc-vector or Myc-parkin, ethanol treatment for 24 h; protein extracts immunoprecipitated with anti-Myc agarose, immunoblot for β-catenin.

No constants are given. Whether binding was seen depends on the method and setting. In cells and extracts the contact can be indirect. Some results given as binding are weak or reduced against the parent protein; the word gives no strength.

For the substance β-catenin (from UniProt P35222 1-781), the binding result was “binds”.
